Article PMC12475165
No constants are given. Whether binding was seen depends on the method and setting. Binding seen in cells or lysates may run through a third protein. Here binding means that the protein was enriched with, or labelled near, the bait; the list need not be complete.

Amino acid sequences for entries named in this document (tags omitted).
UniProt Q05127: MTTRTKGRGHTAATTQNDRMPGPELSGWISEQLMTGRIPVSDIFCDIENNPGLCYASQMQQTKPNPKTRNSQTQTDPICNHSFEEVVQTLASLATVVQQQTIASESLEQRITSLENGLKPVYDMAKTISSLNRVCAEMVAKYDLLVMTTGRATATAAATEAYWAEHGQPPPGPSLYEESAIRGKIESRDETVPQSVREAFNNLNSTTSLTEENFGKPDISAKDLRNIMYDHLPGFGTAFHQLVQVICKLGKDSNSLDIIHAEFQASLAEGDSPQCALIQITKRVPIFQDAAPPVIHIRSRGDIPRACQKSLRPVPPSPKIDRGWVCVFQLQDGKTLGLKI

Biological target: N-terminal BioID2-tagged EBOV VP35 (Ebola virus (EBOV)) (UniProt Q05127)
Assay: proximity labelling

B1: EDC4 (endogenous, Flp-In T-Rex 293 cells) (protein, UniProt Q6P2E9 1-1401)
chain: MASCASIDIEDATQHLRDILKLDRPAGGPSAESPRPSSAYNGDLNGLLVPDPLCSGDSTSANKTGLRTMPPINLQEKQVICLSGDDSSTCIGILAKEVEIVASSDSSISSKARGSNKVKIQPVAKYDWEQKYYYGNLIAVSNSFLAYAIRAANNGSAMVRVISVSTSERTLLKGFTGSVADLAFAHLNSPQLACLDEAGNLFVWRLALVNGKIQEEILVHIRQPEGTPLNHFRRIIWCPFIPEESEDCCEESSPTVALLHEDRAEVWDLDMLRSSHSTWPVDVSQIKQGFIVVKGHSTCLSEGALSPDGTVLATASHDGYVKFWQIYIEGQDEPRCLHEWKPHDGRPLSCLLFCDNHKKQDPDVPFWRFLITGADQNRELKMWCTVSWTCLQTIRFSPDIFSSVSVPPSLKVCLDLSAEYLILSDVQRKVLYVMELLQNQEEGHACFSSISEFLLTHPVLSFGIQVVSRCRLRHTEVLPAEEENDSLGADGTHGAGAMESAAGVLIKLFCVHTKALQDVQIRFQPQLNPDVVAPLPTHTAHEDFTFGESRPELGSEGLGSAAHGSQPDLRRIVELPAPADFLSLSSETKPKLMTPDAFMTPSASLQQITASPSSSSSGSSSSSSSSSSSLTAVSAMSSTSAVDPSLTRPPEELTLSPKLQLDGSLTMSSSGSLQASPRGLLPGLLPAPADKLTPKGPGQVPTATSALSLELQEVEPLGLPQASPSRTRSPDVISSASTALSQDIPEIASEALSRGFGSSAPEGLEPDSMASAASALHLLSPRPRPGPELGPQLGLDGGPGDGDRHNTPSLLEAALTQEASTPDSQVWPTAPDITRETCSTLAESPRNGLQEKHKSLAFHRPPYHLLQQRDSQDASAEQSDHDDEVASLASASGGFGTKVPAPRLPAKDWKTKGSPRTSPKLKRKSKKDDGDAAMGSRLTEHQVAEPPEDWPALIWQQQRELAELRHSQEELLQRLCTQLEGLQSTVTGHVERALETRHEQEQRRLERALAEGQQRGGQLQEQLTQQLSQALSSAVAGRLERSIRDEIKKTVPPCVSRSLEPMAGQLSNSVATKLTAVEGSMKENISKLLKSKNLTDAIARAAADTLQGPMQAAYREAFQSVVLPAFEKSCQAMFQQINDSFRLGTQEYLQQLESHMKSRKAREQEAREPVLAQLRGLVSTLQSATEQMAATVAGSVRAEVQHQLHVAVGSLQESILAQVQRIVKGEVSVALKEQQAAVTSSIMQAMRSAAGTPVPSAHLDCQAQQAHILQLLQQGHLNQAFQQALTAADLNLVLYVCETVDPAQVFGQPPCPLSQPVLLSLIQQLASDLGTRTDLKLSYLEEAVMHLDHSDPITRDHMGSVMAQVRQKLFQFLQAEPHNSLGKAARRLSLMLHGLVTPSLP
modifications: biotinylated by BioID2 in the cells (sites not given)
binding: binds
